Experimental data taken from PubChem BioAssay AID308 (DTP/NCI, 2004).
The list does not hold the whole screen: it gathers tests that were run many times, whatever their T/C, doses with no T/C, and many T/C values between a quarter and a half above the control. Further doses and runs are listed elsewhere. T/C: endpoint of the treated group in % of that of the vehicle group. Some entries give survivors of the animals treated and no T/C: the source files T/C as zero there, which appears to mark a toxic dose or a test without result, not a measured value. Some survivor counts are full or nearly so, which does not show that the dose was tolerated: survival well below the control is almost never listed, so the zero probably covers shortened survival too. Survivors were counted at the toxicity check, usually on the fifth day, unless a day is given; later deaths do not show. Schedules are NCI's codes, read here as Q, the interval in days (D) or hours (H), X, the number of doses. Some entries hold several experiments; the results are listed from low to high. Some schedule codes hold Z or #, which are not explained here. For survival time, the PubChem record calls one and a half times the control and up active, and a quarter to a half above the control has no call in these data; cut-offs in other NCI protocols can differ. Some T/C values carry the count of animals alive at the toxicity check (mostly the fifth day); without a count, all were alive then. Brackets with × give the number of equal values in this list.

Test system: BDF1 mice, L1210 6-MP/6-TG resistant leukemia ip, survival T/C
Test: NCI In Vivo Anticancer Drug Screen. Data for tumor model L1210 Leukemia resistant to 6-MP and 6-Thioguanine; NSC 755, NSC 752 (intraperitoneal) in B6D2F1 (BDF1) mice
Settings: T/C endpoint: mean survival time, higher T/C = longer survival
Experimental: The antitumor activity of compounds was measured in mice bearing transplantable tumors. Survival or tumor size were measured and the results are expressed as the measurement made in the treated group (T) divided by the measurement made in the vehicle treated control group (C). The tumor model used in this assay is L1210 Leukemia resistant to 6-MP and 6-Thioguanine; NSC 755, NSC 752 (intraperitoneal) in B6D2F1 (BDF1) mice

[1] = dose: 117.0 mg/kg/injection, schedule: Q01DX001 (ip), vehicle: saline
[2] = dose: 134.0 mg/kg/injection, schedule: Q01DX001 (ip), vehicle: saline
[3] = dose: 175.0 mg/kg/injection, schedule: Q01DX001 (ip), vehicle: saline
[4] = dose: 200.0 mg/kg/injection, schedule: Q01DX001 (ip), vehicle: saline

Structure (SMILES): CSc1ncnc2c1ncn2C1OC(CO)C(O)C1O (stereo unspecified)
- T/C (dose: 4.0 mg/kg/injection, schedule: Q01DX Z (ip), vehicle: saline): 125 % of control
- T/C (dose: 5.0 mg/kg/injection, schedule: Q01DX015 (ip), vehicle: saline, evaluated on day 45): 131 and 132 % of control
- T/C (dose: 5.0 mg/kg/injection, schedule: Q01DX015 (ip), vehicle: saline, run until all animals had died): 99, 101, 122, 127 % of control
- T/C (dose: 5.0 mg/kg/injection, schedule: Q01DX Z (ip), vehicle: clinical formulation): 137 % of control
- T/C (dose: 5.0 mg/kg/injection, schedule: Q01DX Z (ip), vehicle: saline): 132 % of control
- T/C (dose: 6.0 mg/kg/injection, schedule: Q01DX Z (ip), vehicle: saline): 128 % of control
- T/C (dose: 7.0 mg/kg/injection, schedule: Q01DX015 (ip), vehicle: saline): 140 % of control
- T/C (dose: 7.0 mg/kg/injection, schedule: Q01DX Z (ip), vehicle: clinical formulation): 140 % of control
- T/C (dose: 8.0 mg/kg/injection, schedule: Q01DX Z (ip), vehicle: saline): 134 % of control
- T/C (dose: 8.8 mg/kg/injection, schedule: Q01DX015 (ip), vehicle: saline): 127 % of control
- T/C (dose: 9.0 mg/kg/injection, schedule: Q01DX015 (ip), vehicle: saline, evaluated on day 46): 129 % of control
- T/C (dose: 9.0 mg/kg/injection, schedule: Q01DX015 (ip), vehicle: saline, run until all animals had died): 130 % of control
- T/C (dose: 10.0 mg/kg/injection, schedule: Q01DX015 (ip), vehicle: saline): 97, 99, 137, 147, 162 % of control
- T/C (dose: 11.0 mg/kg/injection, schedule: Q01DX015 (ip), vehicle: saline): 133 and 138 % of control
- T/C (dose: 11.0 mg/kg/injection, schedule: Q01DX Z (ip), vehicle: clinical formulation): 143 % of control
- T/C (dose: 11.0 mg/kg/injection, schedule: Q01DX Z (ip), vehicle: saline): 147 % of control
- T/C (dose: 12.0 mg/kg/injection, schedule: Q01DX015 (ip), vehicle: saline): 137 % of control
- T/C (dose: 12.0 mg/kg/injection, schedule: Q01DX Z (ip), vehicle: saline): 145 % of control
- T/C (dose: 13.0 mg/kg/injection, schedule: Q01DX015 (ip), vehicle: saline): 133 and 137 % of control
- T/C (dose: 14.0 mg/kg/injection, schedule: Q## X032 (ip), vehicle: saline): 127 % of control
- T/C (dose: 15.0 mg/kg/injection, schedule: Q01DX015 (ip), vehicle: saline): 108, 110, 136, 145, 152 % of control
- T/C (dose: 16.0 mg/kg/injection, schedule: Q01DX Z (ip), vehicle: saline): 147 [9 of 10 alive] and 149 % of control
- T/C (dose: 18.0 mg/kg/injection, schedule: Q01DX015 (ip), vehicle: saline): 142 % of control
- T/C (dose: 20.0 mg/kg/injection, schedule: Q01DX010 (ip), vehicle: saline): 134 % of control
- T/C (dose: 20.0 mg/kg/injection, schedule: Q01DX015 (ip), vehicle: saline, evaluated on day 46): 142 and 158 % of control
- T/C (dose: 20.0 mg/kg/injection, schedule: Q01DX015 (ip), vehicle: saline, run until all animals had died): 113, 120, 148, 161, 182 % of control
- T/C (dose: 20.0 mg/kg/injection, schedule: Q02DX008 (ip), vehicle: saline): 133 % of control
- T/C (dose: 20.0 mg/kg/injection, schedule: Q## X004 (ip), vehicle: saline): 125 % of control
- T/C (dose: 22.0 mg/kg/injection, schedule: Q## X032 (ip), vehicle: saline): 140 % of control
- T/C (dose: 24.0 mg/kg/injection, schedule: Q01DX015 (ip), vehicle: saline): 128 % of control
- survivor count (dose: 24.0 mg/kg/injection, schedule: Q01DX Z (ip), vehicle: clinical formulation): 6 of 6
- T/C (dose: 24.0 mg/kg/injection, schedule: Q01DX Z (ip), vehicle: saline): 133 % of control
- T/C (dose: 24.0 mg/kg/injection, schedule: Q01DX Z (oral), vehicle: saline): 139 % of control
- T/C (dose: 25.0 mg/kg/injection, schedule: Q01DX015 (ip), vehicle: saline): 122, 130 [9 of 10 alive], 149, 150 % of control
- T/C (dose: 25.0 mg/kg/injection, schedule: Q01DX Z (ip), vehicle: saline): 139 % of control
- survivor count (dose: 30.0 mg/kg/injection, schedule: Q01DX010 (ip), vehicle: saline): 10 of 10
- T/C (dose: 30.0 mg/kg/injection, schedule: Q01DX015 (ip), vehicle: saline): 135 and 138 % of control
- T/C (dose: 30.0 mg/kg/injection, schedule: Q02DX008 (ip), vehicle: saline): 145 % of control
- T/C (dose: 30.0 mg/kg/injection, schedule: Q## X004 (ip), vehicle: saline): 136 % of control
- T/C (dose: 32.0 mg/kg/injection, schedule: Q01DX Z (oral), vehicle: saline): 125 % of control
- T/C (dose: 32.0 mg/kg/injection, schedule: Q## X032 (ip), vehicle: saline): 147 % of control
- survivor count (dose: 36.0 mg/kg/injection, schedule: Q01DX015 (ip), vehicle: saline): 10 of 10
- survivor count (dose: 40.0 mg/kg/injection, schedule: Q01DX015 (ip), vehicle: saline): 10 of 10
- T/C (dose: 48.0 mg/kg/injection, schedule: Q## X032 (ip), vehicle: saline): 146 % of control
- survivor count (dose: 53.0 mg/kg/injection, schedule: Q01DX015 (ip), vehicle: saline): 7 of 10 and 8 of 10
- T/C (dose: 61.0 mg/kg/injection, schedule: Q01DX001 (ip), vehicle: alkali diluted with saline): 127 % of control
- survivor count (dose: 64.0 mg/kg/injection, schedule: Q01DX Z (ip), vehicle: saline): 10 of 10
- survivor count (dose: 64.0 mg/kg/injection, schedule: Q01DX Z (oral), vehicle: saline): 10 of 10
- T/C (dose: 67.0 mg/kg/injection, schedule: Q02DX008 (ip), vehicle: saline): 147 % of control
- T/C (dose: 72.0 mg/kg/injection, schedule: Q## X032 (ip), vehicle: saline): 131 % of control
- survivor count (dose: 75.0 mg/kg/injection, schedule: Q01DX Z (ip), vehicle: saline): 6 of 6
- survivor count (dose: 80.0 mg/kg/injection, schedule: Q01DX015 (ip), vehicle: saline): 0 of 10 and 1 of 10
- T/C (dose: 90.0 mg/kg/injection, schedule: Q01DX001 (ip), vehicle: saline): 128 % of control
- T/C (dose: 92.0 mg/kg/injection, schedule: Q01DX001 (ip), vehicle: saline): 128 % of control
- survivor count (dose: 96.0 mg/kg/injection, schedule: Q01DX Z (oral), vehicle: saline): 9 of 10
- T/C (dose: 100.0 mg/kg/injection, schedule: Q01DX001 (ip), vehicle: saline): 118, 119, 121, 124 % of control
- T/C [1]: 97 [8 of 10 alive] and 140 % of control [7 of 10 alive]
- survivor count [1]: 3 of 10, 4 of 10, 5 of 10
- T/C (dose: 121.0 mg/kg/injection, schedule: Q01DX001 (ip), vehicle: saline): 131 % of control
- T/C (dose: 125.0 mg/kg/injection, schedule: Q01DX001 (ip), vehicle: saline): 120, 122 (2×), 124, 125 (2×), 127, 137 % of control
- T/C [2]: 128 % of control
- survivor count [2]: 5 of 10
- T/C (dose: 138.0 mg/kg/injection, schedule: Q01DX001 (ip), vehicle: alkali diluted with saline): 138 % of control
- survivor count (dose: 144.0 mg/kg/injection, schedule: Q01DX Z (oral), vehicle: saline): 9 of 10
- T/C (dose: 150.0 mg/kg/injection, schedule: Q01DX001 (ip), vehicle: saline): 111 [9 of 10 alive], 113 [9 of 10 alive], 117, 120, 121, 135 [9 of 10 alive], 138 [9 of 10 alive], 144 % of control
- survivor count (dose: 167.0 mg/kg/injection, schedule: Q01DX001 (ip), vehicle: saline): 3 of 10
- T/C [3]: 111, 113, 118 [9 of 10 alive], 121, 121 [9 of 10 alive], 123, 126 [7 of 10 alive], 137 % of control [7 of 10 alive]
- survivor count [3]: 0 of 10, 1 of 10, 2 of 10, 3 of 10
- T/C (dose: 181.0 mg/kg/injection, schedule: Q01DX001 (ip), vehicle: saline): 137 % of control
- T/C [4]: 118 [8 of 10 alive], 122 [9 of 10 alive], 130, 132 % of control [8 of 10 alive]
- survivor count [4]: 0 of 10 and 6 of 10
- survivor count (dose: 207.0 mg/kg/injection, schedule: Q01DX001 (ip), vehicle: saline): 6 of 10
- survivor count (dose: 217.0 mg/kg/injection, schedule: Q01DX Z (oral), vehicle: saline): 8 of 10
- T/C (dose: 274.0 mg/kg/injection, schedule: Q01DX001 (ip), vehicle: saline): 132 % of control [7 of 10 alive]
- survivor count (dose: 310.0 mg/kg/injection, schedule: Q01DX001 (ip), vehicle: alkali diluted with saline): 0 of 10 and 5 of 10
- survivor count (dose: 450.0 mg/kg/injection, schedule: Q01DX001 (ip), vehicle: saline): 1 of 10
